Measured values taken from PubChem BioAssay AID2551 (National Center for Advancing Translational Sciences (NCATS), 2010).
Out of some 310,000 compounds screened, about 17,000 (5.5%) were called active. Inconclusive results, whose numbers are uncertain, are shown with a selection of clear calls. Calls come from the whole dose curve; as a rule, active = well fitted inhibition curve with a large enough effect; inconclusive = small, poorly fitted or top-dose-only effect, or effect the other way; inactive = no such curve, though single readings can be large or run the other way. A potency beside an inconclusive call is a rough fit, not a confirmed value.

By UniProt entry, the sequences of proteins in these tests, tags left out. Where a name states a change or a piece, a line headed by the entry shows the natural chain unless it says otherwise.
UniProt P51450: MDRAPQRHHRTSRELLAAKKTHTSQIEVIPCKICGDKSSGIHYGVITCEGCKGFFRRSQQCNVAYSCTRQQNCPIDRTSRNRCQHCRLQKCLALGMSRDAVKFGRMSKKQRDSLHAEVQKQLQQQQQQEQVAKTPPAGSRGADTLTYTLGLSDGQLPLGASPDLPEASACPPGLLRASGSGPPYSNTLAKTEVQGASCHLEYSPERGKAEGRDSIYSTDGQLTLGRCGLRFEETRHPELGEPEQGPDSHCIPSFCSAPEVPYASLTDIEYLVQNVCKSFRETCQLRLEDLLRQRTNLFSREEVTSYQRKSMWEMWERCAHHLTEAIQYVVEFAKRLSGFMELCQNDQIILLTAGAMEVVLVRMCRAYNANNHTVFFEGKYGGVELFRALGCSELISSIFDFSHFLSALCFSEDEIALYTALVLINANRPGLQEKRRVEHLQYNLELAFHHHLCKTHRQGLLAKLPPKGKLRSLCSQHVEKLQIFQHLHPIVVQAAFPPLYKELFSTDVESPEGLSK

Molecular target: Nuclear receptor ROR-gamma (Mus musculus) (UniProt P51450)
Test: qHTS for inhibitors of ROR gamma transcriptional activity; note: nearly all actives have a fitted effect of over 60% in size
Conditions: Drosophila S2 Gal4-RORgamma UAS-luciferase reporter, 20 h; activity change, negative = inhibition: at 53.6 µM (top of the series)
Outline: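 ROR gamma transcriptional activity was tracked as Gal4-UAS luciferase output in stably transfected Drosophila Schneider cells, with compound added 1 hr before 700 uM copper sulfate induction and a 20 hr ambient-temperature incubation.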
% is set by controls: 0 for no effect and ±100 for the full control effect; potency is the fitted concentration of half-maximal effect.

Potency, active:
CN(C)c1ccc(C(=O)N/N=C/c2cc(Br)cc(Br)c2O)cc1 2.82 µM
NC(=S)NN=C1C2CC3CC(C2)CC1C3 2 µM
CC1(C)CC(=O)c2sc(NC(=O)c3cccs3)nc2C1 5.01 µM
O=C(NC(=S)Nc1ccc(N2CCCCC2)cc1)c1ccc2c(c1)OCCO2 3.55 µM
C=CCN1CN(Cc2ccco2)CNC1=S 12.6 µM
CCOC(=O)c1c(NC(=S)NC)sc2c1CC(C)(C)SC2 0.398 µM
O=[N+]([O-])c1cc(Cl)c(O)c2ncccc12 0.708 µM
CC1CCCCC1NC(=S)NC(=O)c1cccs1 (stereo unspecified) 1.58 µM

Potency, inconclusive:
C=CCN(C(=O)Nc1ccc(OC)cc1)c1nnc(-c2ccncc2)s1 7.08 µM [activator, full curve]
CCOc1ccc(S(=O)(=O)N2CCCC(C(=O)N3CCN(c4ccccc4)CC3)C2)cc1 (stereo unspecified) 12.6 µM [activator, single point]
COC(=O)c1cccc(NC(=O)c2cc3sccc3n2C)c1 20 µM [activator, partial curve]
S=C(NCc1ccc2c(c1)OCO2)Nc1ccc2nsnc2c1 35.5 µM [inhibitor, single point]
CC(C)SC1=NC(C)(C)C=C(/C=C/c2c(Cl)cccc2Cl)N1 35.5 µM [inhibitor, single point]
Cc1ccc(C(=O)Nc2ccc(C(=O)N/N=C/c3ccc(C)o3)cc2)cc1 35.5 µM [inhibitor, single point]
CSc1ccc(/C=N/NC(=O)c2cccc(Cl)c2)cc1 12.6 µM [inhibitor, single point]
COc1ccc2[nH]c3c(=O)n(N)c(C)nc3c2c1 3.98 µM [activator, full curve]
S=C(NCc1ccc2c(c1)OCO2)Nc1ccc(-c2nc3ccccc3[nH]2)cc1 35.5 µM [activator, single point]
CCCN1C(=S)SC(C)(C)C1/[N+]([O-])=C/c1ccc(S(=O)(=O)NC)cc1 (stereo unspecified) 20 µM [activator, single point]
Cc1ccc(C(=O)/C=C/c2ccc3ncccc3c2)cc1 25.1 µM [inhibitor, single point]
COc1nc(NCCO)nc(Nc2ccc([N+](=O)[O-])cc2)n1 3.55 µM [activator, partial curve]
Cn1c(C(=O)NCCCN2CCN(c3cccc(Cl)c3)CC2)cc2c(=O)n(C)c3ccccc3c21 28.2 µM [inhibitor, single point]
CCOc1ccc(C(=O)Nc2nccs2)cc1[N+](=O)[O-] 15.8 µM [inhibitor, single point]
CCN(CC)c1ccc(C(=O)Nc2cccc(F)c2)cc1 0.0562 µM [activator, full curve, poor fit]
COC(=O)c1cccc(NC(=O)CCc2cc(OC)c(OC)c(OC)c2)c1 11.2 µM [activator, partial curve]
CNNC(=S)NCCC1=CCCCC1 35.5 µM [inhibitor, single point]
COc1cccc(N=Nc2c(=O)[nH]n3c(C)cc(C)nc23)c1 25.1 µM [inhibitor, single point]
O=C(Cn1c(CO)nc2ccccc21)NCCc1ccc(F)cc1 6.31 µM [inhibitor, single point]
COc1cccc(CNc2ncnc3cc(Cl)ccc23)c1 22.4 µM [inhibitor, single point]
O=C1Nc2ccc(S(=O)(=O)N3CCCC3)c3cccc1c23 17.8 µM [inhibitor, partial curve, poor fit]
COc1ccc(OCCCC(=O)OC(C)C(=O)Nc2cccc(C(C)=O)c2)cc1 (stereo unspecified) 35.5 µM [inhibitor, single point]
Cc1ccc(OCC(=O)N2CCN(S(=O)(=O)c3ccc(Cl)cc3)CC2)c([N+](=O)[O-])n1 35.5 µM [activator, single point]
COc1ccc(CN(CC(=O)NCc2ccco2)C(=O)CCC(=O)Nc2nccs2)cc1 25.1 µM [activator, single point]
O=C(c1cccc(C(F)(F)F)c1)C1CCCN(C(=O)c2cc(C3CC3)[nH]n2)C1 (stereo unspecified) 12.6 µM [activator, single point]
COc1ccccc1Cc1nc(-c2ccc(C)cc2)no1 11.2 µM [activator, partial curve]
CC(=O)c1cccc(NC(=O)COC(=O)c2ccc3c(c2)OCCO3)c1 1.12 µM [activator, full curve, poor fit]
CCOc1ccc(-c2nnn(CC(=O)c3ccc4c(c3)OCCO4)n2)cc1OCC 14.1 µM [activator, partial curve, poor fit]
CCn1c(C(=O)NCc2ccccn2)cc2sccc21 0.112 µM [activator, full curve, poor fit]
CCOc1cc(/C=C2/SC(=S)NC2=O)ccc1OC(=O)c1ccco1 6.31 µM [inhibitor, single point]
O=C(N/N=C/c1ccoc1)c1ccc([N+](=O)[O-])cc1 12.6 µM [inhibitor, partial curve]
COc1c(C)cc(Br)cc1C(=O)Nc1cccc(NC(=O)c2ccco2)c1 31.6 µM [activator, single point]
CCc1ncc(CN2CCCC(C(=O)Nc3cccc(-c4ccc(F)cc4)c3)C2)cn1 (stereo unspecified) 35.5 µM [activator, single point]
Cc1nc2ccccc2n1CC(O)Cn1c2ccccc2c2ccccc21 (stereo unspecified) 20 µM [activator, single point]
Cn1cccc1Cc1nnc(SCC(=O)Nc2ccc(Cl)cc2)n1-c1ccc(F)cc1 35.5 µM [activator, single point]
CC(C)(C)C(=O)Nc1ccccc1C(=O)Nc1cc(Cl)ccc1Cl 11.2 µM [inhibitor, partial curve]
CC(C)c1ccc(S(=O)(=O)c2nnn3c2nc(N2CCCCC2)c2ccccc23)cc1 8.91 µM [activator, partial curve, poor fit]
O=c1cc(N2CCCC2)[nH]c(=O)n1-c1ccc(Cl)cc1 1.58 µM [inhibitor, partial curve]
O=C(CN1CCC(C(=O)c2ccc3c(c2)OCCO3)CC1)Nc1ccccc1C(F)(F)F 12.6 µM [activator, single point]
Cc1ccc(/C([O-])=C(/C(=S)NCc2ccccc2)[n+]2ccccc2)cc1[N+](=O)[O-] 14.1 µM [inhibitor, single point]
NC(=O)c1ccc(N2CCN(c3ccccc3O)CC2)c([N+](=O)[O-])c1 1 µM [activator, full curve, poor fit]
OC1(c2ccccn2)COc2ccccc2O1 (stereo unspecified) 0.891 µM [inhibitor, full curve, poor fit]
O=C(NC(=S)Nc1ncccn1)c1ccccc1Cl 15.8 µM [inhibitor, single point]
Cc1cc(C)n2nc(SCc3nnc(SCc4ccccc4)s3)nc2n1 6.31 µM [activator, full curve]
Cc1sc2ncnc(Sc3nnc4sc5ccccc5n34)c2c1C 0.1 µM [inhibitor, full curve]
Cc1c(C(=O)Nc2ccc3c(c2)OCCO3)sc2ncnc(N3CCCCC3C)c12 (stereo unspecified) 35.5 µM [activator, single point]

Taken from above (5 entries):
Potency, inconclusive:
CCOc1ccc(S(=O)(=O)N2CCCC(C(=O)N3CCN(c4ccccc4)CC3)C2)cc1 (stereo unspecified) 12.6 µM [activator, single point]
COC(=O)c1cccc(NC(=O)c2cc3sccc3n2C)c1 20 µM [activator, partial curve]
S=C(NCc1ccc2c(c1)OCO2)Nc1ccc2nsnc2c1 35.5 µM [inhibitor, single point]
CC(C)SC1=NC(C)(C)C=C(/C=C/c2c(Cl)cccc2Cl)N1 35.5 µM [inhibitor, single point]
Cc1ccc(C(=O)Nc2ccc(C(=O)N/N=C/c3ccc(C)o3)cc2)cc1 35.5 µM [inhibitor, single point]

Following part.

Activity change, negative = inhibition, inactive:
CC1CCC2C(=O)N3C(CCC(C)[C@H]3c3cccc(N4CCCC4=O)c3)C(=O)N2C1c1cccc(N2CCCC2=O)c1 (stereo partly specified) 10.6% [at 10 µM]
COc1cccc(NC(=O)c2oc3ccccc3c2NC(C)=O)c1 2.25%
CN(C)CCNC(=O)c1cc(Br)ccc1Cl 0.304%
C/C(=N/N1CCN(c2ccccc2)CC1)c1cccc([N+](=O)[O-])c1 18.4%
CCn1c(O)c(N=NC(=O)C(O)c2ccccc2)c2ccccc21 (stereo unspecified) -23.5%
CN(Cc1nccs1)C(=O)C1CCC(=O)N(CCc2ccc(Cl)cc2)C1 (stereo unspecified) 0.684%
Cc1sc(NC(=O)CSC2=NCCS2)nc1-c1ccccc1 -24.5%
Cc1ccnc(NCc2ccc(Br)cc2)c1 -21.7%
Cc1ccc(S(=O)(=O)c2cn(CC(=O)Nc3ccccc3)c3ccc(F)cc3c2=O)cc1 -1.16%
CC(/C=N\NC(=O)CN1CCN(S(=O)(=O)c2ccc(C)cc2)CC1)=C\c1ccccc1 168%
O=C(c1ccco1)N1CCC2(CCCN(c3ccccc3)C2)CC1 41.9%
Cc1ccc(NC(=O)Nc2ncnc3nc[nH]c23)cc1 3.53%
CCCNC(=O)N1N=C(c2ccc(N)cc2)c2cc3c(cc2C1C)OCO3 (stereo unspecified) 26.2%
COc1cc(CNc2ccccc2SC)ccc1O 0.705%
Cc1nnc(SCCn2c(Br)nc3c2c(=O)[nH]c(=O)n3C)s1 -1.57%
OC(CN1CCOCC1)CN(c1ccccc1)c1ccccc1 (stereo unspecified) 2.3%
COC(=O)C/C=C1\c2ccc3c(c2[C@@H](OC)[C@@H]1C)OCO3 -7.79%
